These are yes or no findings as the source states them, for the method shown. Binding seen in cells or lysates may run through a third protein. Some results given as binding are weak or reduced against the parent protein; the word gives no strength.
Biological target: p300 (mouse (endogenous in mouse VSMCs)) (UniProt B2RWS6)
Assay: co-IP; lysates of mouse VSMCs (transfected with ASO-Gm40097, pcDNA-Gm40097 or controls for 24 h, treated or not with AngII for 24 h) immunoprecipitated with anti-Ythdc1, anti-p300 or anti-Klf5 and immunoblotted for Ythdc1, p300 and Klf5

Chains of the proteins cited; added tags and fusions are not shown.
UniProt B2RWS6: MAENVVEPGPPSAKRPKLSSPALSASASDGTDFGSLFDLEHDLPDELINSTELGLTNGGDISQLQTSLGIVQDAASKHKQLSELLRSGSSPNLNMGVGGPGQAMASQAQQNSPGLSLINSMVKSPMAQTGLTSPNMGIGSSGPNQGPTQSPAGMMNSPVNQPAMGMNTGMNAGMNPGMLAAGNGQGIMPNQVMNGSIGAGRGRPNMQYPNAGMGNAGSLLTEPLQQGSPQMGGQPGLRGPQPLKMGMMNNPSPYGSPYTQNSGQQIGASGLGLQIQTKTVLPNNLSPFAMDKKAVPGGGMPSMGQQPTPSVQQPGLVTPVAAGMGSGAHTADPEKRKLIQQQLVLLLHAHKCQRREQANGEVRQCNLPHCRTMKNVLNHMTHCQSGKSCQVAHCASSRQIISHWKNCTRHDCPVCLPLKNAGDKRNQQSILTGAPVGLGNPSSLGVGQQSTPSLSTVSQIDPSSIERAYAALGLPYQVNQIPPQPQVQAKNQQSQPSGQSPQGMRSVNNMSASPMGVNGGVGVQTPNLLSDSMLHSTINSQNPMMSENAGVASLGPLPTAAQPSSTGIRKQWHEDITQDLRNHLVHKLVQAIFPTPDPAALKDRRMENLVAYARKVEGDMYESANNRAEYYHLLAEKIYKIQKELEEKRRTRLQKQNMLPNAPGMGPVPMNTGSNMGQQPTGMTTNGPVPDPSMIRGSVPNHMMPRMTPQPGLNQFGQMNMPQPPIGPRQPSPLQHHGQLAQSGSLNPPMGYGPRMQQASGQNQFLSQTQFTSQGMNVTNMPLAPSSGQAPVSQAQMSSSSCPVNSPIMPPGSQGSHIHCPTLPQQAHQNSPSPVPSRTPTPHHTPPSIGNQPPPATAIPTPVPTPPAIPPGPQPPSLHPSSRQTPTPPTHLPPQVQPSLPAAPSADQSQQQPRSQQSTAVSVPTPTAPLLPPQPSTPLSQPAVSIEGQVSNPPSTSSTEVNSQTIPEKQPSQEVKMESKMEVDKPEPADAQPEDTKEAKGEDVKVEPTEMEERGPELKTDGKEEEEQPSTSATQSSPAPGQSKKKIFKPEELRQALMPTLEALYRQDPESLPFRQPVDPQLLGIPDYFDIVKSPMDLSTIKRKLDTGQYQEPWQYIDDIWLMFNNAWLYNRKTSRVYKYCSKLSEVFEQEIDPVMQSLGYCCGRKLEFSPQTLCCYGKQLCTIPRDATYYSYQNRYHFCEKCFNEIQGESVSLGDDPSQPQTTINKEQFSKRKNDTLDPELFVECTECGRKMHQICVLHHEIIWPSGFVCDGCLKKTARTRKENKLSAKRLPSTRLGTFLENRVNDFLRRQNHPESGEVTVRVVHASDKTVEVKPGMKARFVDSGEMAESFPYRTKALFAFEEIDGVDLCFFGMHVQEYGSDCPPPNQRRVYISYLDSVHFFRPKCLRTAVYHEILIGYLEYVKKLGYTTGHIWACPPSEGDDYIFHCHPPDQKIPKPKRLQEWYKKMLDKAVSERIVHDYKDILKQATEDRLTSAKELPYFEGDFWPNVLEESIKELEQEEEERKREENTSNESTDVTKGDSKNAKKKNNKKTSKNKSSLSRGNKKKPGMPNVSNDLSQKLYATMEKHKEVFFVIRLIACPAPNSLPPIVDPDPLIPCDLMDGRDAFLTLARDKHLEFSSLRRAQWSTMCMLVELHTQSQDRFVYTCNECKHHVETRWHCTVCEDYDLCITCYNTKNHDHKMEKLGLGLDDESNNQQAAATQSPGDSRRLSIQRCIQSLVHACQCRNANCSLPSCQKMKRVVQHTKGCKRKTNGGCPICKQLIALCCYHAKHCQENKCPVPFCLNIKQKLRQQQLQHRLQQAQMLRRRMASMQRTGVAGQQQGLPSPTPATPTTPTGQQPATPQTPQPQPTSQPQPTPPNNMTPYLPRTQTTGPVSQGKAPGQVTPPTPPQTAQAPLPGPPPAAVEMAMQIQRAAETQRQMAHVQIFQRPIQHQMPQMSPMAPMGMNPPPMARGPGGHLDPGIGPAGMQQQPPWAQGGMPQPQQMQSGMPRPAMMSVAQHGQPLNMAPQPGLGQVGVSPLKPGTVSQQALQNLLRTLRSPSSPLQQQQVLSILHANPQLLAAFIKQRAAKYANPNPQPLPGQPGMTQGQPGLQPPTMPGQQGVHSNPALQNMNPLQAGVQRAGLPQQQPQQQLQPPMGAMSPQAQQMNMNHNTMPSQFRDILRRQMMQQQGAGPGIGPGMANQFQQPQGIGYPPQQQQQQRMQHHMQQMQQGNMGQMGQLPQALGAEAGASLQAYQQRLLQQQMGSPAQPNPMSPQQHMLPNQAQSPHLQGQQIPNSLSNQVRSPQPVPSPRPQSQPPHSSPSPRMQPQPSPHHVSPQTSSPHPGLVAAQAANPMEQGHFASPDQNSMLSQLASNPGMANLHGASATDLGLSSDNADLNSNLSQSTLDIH
UniProt Q9Z0Z7: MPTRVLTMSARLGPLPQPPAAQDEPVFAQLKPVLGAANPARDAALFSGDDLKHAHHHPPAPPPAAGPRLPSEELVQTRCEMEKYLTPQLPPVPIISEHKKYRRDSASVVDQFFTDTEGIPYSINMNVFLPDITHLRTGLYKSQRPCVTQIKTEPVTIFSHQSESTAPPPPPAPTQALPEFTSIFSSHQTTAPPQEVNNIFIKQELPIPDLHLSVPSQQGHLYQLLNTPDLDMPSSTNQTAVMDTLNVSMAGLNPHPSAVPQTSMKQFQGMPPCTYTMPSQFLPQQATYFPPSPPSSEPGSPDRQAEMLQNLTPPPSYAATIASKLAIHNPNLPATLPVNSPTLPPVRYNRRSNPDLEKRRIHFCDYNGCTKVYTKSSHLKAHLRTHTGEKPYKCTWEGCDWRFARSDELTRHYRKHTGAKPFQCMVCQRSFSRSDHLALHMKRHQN

In the case of “Krüppel‐like zinc‐finger transcription factor Klf5 (from UniProt Q9Z0Z7 1-446)”, the binding is reported as “binds”.

Reference: PMC12822387
